# Reference: PMC9848351, “Discovery of new pyridine-quinoline hybrids as competitive and non-competitive PIM-1 kinase inhibitors with apoptosis induction and caspase 3/7 activation capabilities” (Journal of Enzyme Inhibition and Medicinal Chemistry, 2023)
# Columns and labels:
# [1] = tested on: prostate cancer cell line (PC-3); test: MTT anticancer activity, PC-3; assay type: cell-based, human; conditions: for PC-3 SI: selectivity index, Wi-38 versus PC-3
# Method: (§1) Anticancer effect of the above-mentioned compounds was evaluated using four human cancer cell lines. Colon cancer cells (Caco-2), myeloid leukaemia cell line (NFS-60), liver cancer cell line (HepG-2) and prostate cancer cell line (PC-3) using MTT method was used for assaying cell viability[26] (Supplementary Page S55).
# (§2) All final compounds were evaluated against four human cancer cell lines namely; liver cancer (HepG2) (ATCC® HB-8065™), colon cancer (Caco-2) (ATCC® HTB-37™), leukaemia cancer (NFS-60) (ATCC® CRL-1838™), and prostate cancer (PC-3) (ATCC® CRL-1435™) using doxorubicin (Dox) as the reference drug being widely used in tumour management utilising microculture MTT assay, declared by Mosmann[26] (Table 1 in Supplementary Material, Figures 5–8). […]
# (§3) MTT method was used for assaying cell viability 25. Twenty microliters of 5 mg/ml MTT (Sigma, USA) was added to each well and the plate was incubated at 37 °C for 3 h. Then MTT solution was removed, 100 µl DMSO was used and the absorbance of each well was measured with a microplate reader ( BMG LabTech, Germany) at 570 nm. The effective concentration (IC 50) and safe dose (EC100) values of the tested compounds that cause 50% and 100% cell viability were estimated by the Graphpad Instat software.
# (§4) Determination of the anticancer activity
# (§5) Anticancer effect of the above-mentioned compounds was evaluated using four human cancer cell lines. Colon cancer cells (Caco-2) were maintained in DMEM (Lonza, USA) containing 10% FBS while myeloid leukemia cell line (NFS-60), liver cancer cell line (HepG-2) and prostate cancer cell line (PC-3) were cultured in RPMI-1640 (Lonza, USA) supplemented with 10% FBS. All cancer cells (5x10^3 cells/well) were seeded in sterile 96-well plates. After 24h, serial concentrations of the tested compounds and Dox were incubated with four cancer cell lines for 72 h at 37 °C in 5% CO2 incubator. MTT method was done as described above. The Graphpad Instat software was used for calculating the half maximal inhibitory concentration (IC50) values. Furthermore, phase contrast inverted microscope with a digital camera (Olympus, Japan) was used for investigating […]
# (§6) safest anticancer compounds. […]
# [2] = tested on: myeloid leukaemia cell line (NFS-60); test: MTT anticancer activity, NFS-60; assay type: cell-based; conditions: selectivity index, Wi-38 versus NFS-60
# Method: as §1, §2, §3, §4, §5, §6
# [3] = tested on: liver cancer cell line (HepG-2); test: MTT anticancer activity, HepG-2; assay type: cell-based, human; conditions: selectivity index, Wi-38 versus HepG-2
# Method: as §1, §2, §3, §4, §5, §6
SMILES,PC-3 SI [1],NFS-60 SI [2],HepG-2 SI [3],PC-3 LE ([1]; ligand efficiency from IC50 and number of heavy atoms),"PC-3 LLE ([1]; ligand lipophilic efficiency, potency in terms of lipophilicity)"
"COc1ccc2nc(N3CCOCC3)c(-c3cc(-c4cccc(O)c4)nc(OCC(=O)Nc4ccccc4)c3C#N)cc2c1 [11g, 2-((3-Cyano-6-(3-hydroxyphenyl)-4-(6-methoxy-2-morpholin-4-yl-quinolin-3-yl)pyridin-2-yl)oxy)-N-phenylacetamide]",2.217,1.806,2.962,,
"N#Cc1c(-c2cc3cc(Cl)ccc3nc2N2CCOCC2)cc(-c2cccc(O)c2)nc1OCC(=O)Nc1ccc(Cl)cc1 [11e, 2-((4-(6-Chloro-2-morpholin-4-yl-quinolin-3-yl)-3-cyano-6-(3-hydroxyphenyl)pyridin-2-yl)oxy)-N-(4-chlorophenyl)acetamide]",1.914,1.598,2.043,,
"N#Cc1c(-c2cc3ccccc3nc2N2CCOCC2)cc(-c2cccc(O)c2)nc1OCC(=O)Nc1ccc(Cl)cc1 [11b, N-(4-Chlorophenyl)-2-((3-cyano-6-(3-hydroxyphenyl)-4-(2-morpholin-4-yl-quinolin-3-yl)pyridin-2-yl)oxy)acetamide]",2.592,1.862,4.713,,
"COc1ccc2nc(N3CCOCC3)c(-c3cc(-c4cccc(O)c4)nc(OCC(=O)O)c3C#N)cc2c1 [9c, 2-((3-Cyano-6-(3-hydroxyphenyl)-4-(6-methoxy-2-morpholin-4-yl-quinolin-3-yl)pyridin-2-yl)oxy)acetic acid]",5.974,2.872,3.183,,
"CC(=O)Oc1cccc(-c2cc(-c3cc4ccccc4nc3N3CCOCC3)c(C#N)c(=O)[nH]2)c1 [7a, 3-(5-Cyano-4-(2-morpholin-4-yl-quinolin-3-yl)-6-oxo-1,6-dihydropyridin-2-yl)phenyl acetate]",1.243,1.200,3.515,,
COc1ccc(NC(=O)COc2nc(-c3cccc(O)c3)cc(-c3cc4ccccc4nc3N3CCOCC3)c2C#N)cc1 [11c],0.635,0.918,0.359,,
"COc1ccc2nc(N3CCOCC3)c(-c3cc(-c4cccc(O)c4)nc(S)c3C#N)cc2c1 [6c, 6-(3-Hydroxyphenyl)-4-(6-methoxy-2-morpholin-4-yl-quinolin-3-yl)-2-mercaptopyridine-3-carbonitrile]",3.730,2.593,4.434,,
"N#Cc1c(-c2cc3cc(Cl)ccc3[nH]c2=O)cc(-c2cccc(O)c2)nc1N [15b, 2-Amino-4-(6-chloro-2-oxo-1,2-dihydroquinolin-3-yl)-6-(3-hydroxyphenyl)pyridine-3-carbonitrile]",1.347,0.817,0.883,,
"N#Cc1c(-c2cc3ccccc3nc2N2CCOCC2)cc(-c2cccc(O)c2)nc1S [6a, 6-(3-Hydroxyphenyl)-4-(2-morpholin-4-yl-quinolin-3-yl)-2-mercaptopyridine-3-carbonitrile]",1.425,1.341,2.446,,
"COc1ccc2nc(N3CCOCC3)c(-c3cc(-c4cccc(O)c4)[nH]c(=O)c3C#N)cc2c1 [5c, 6-(3-Hydroxyphenyl)-4-(6-methoxy-2-morpholin-4-yl-quinolin-3-yl)-2-oxo-1,2-dihydropyridine-3-carbonitrile]",26.360,39.613,94.342,0.30,4.12
"N#Cc1c(-c2cc3cc(Cl)ccc3nc2N2CCOCC2)cc(-c2cccc(O)c2)nc1OCC(=O)O [9b, 2-((4-(6-Chloro-2-morpholin-4-yl-quinolin-3-yl)-3-cyano-6-(3-hydroxyphenyl)pyridin-2-yl)oxy)acetic acid]",1.757,0.450,3.767,,
"COc1ccc2[nH]c(=O)c(-c3cc(-c4cccc(O)c4)nc(S)c3C#N)cc2c1 [14c, 6-(3-Hydroxyphenyl)-2-mercapto-4-(6-methoxy-2-oxo-1,2-dihydroquinolin-3-yl)pyridine-3-carbonitrile]",2.652,1.720,2.980,,
"N#Cc1c(-c2cc3ccccc3nc2N2CCOCC2)cc(-c2cccc(O)c2)[nH]c1=O [5a, 6-(3-Hydroxyphenyl)-4-(morpholin-4-yl-quinolin-3-yl)-2-oxo-1,2-dihydropyridine-3-carbonitrile]",0.842,1.907,1.753,,
"N#Cc1c(-c2cc3ccccc3nc2N2CCCCC2)cc(-c2cccc(O)c2)[nH]c1=O [5d, 6-(3-Hydroxyphenyl)-2-oxo-4-(2-(piperidin-1-yl)quinoline-3-yl)-1,2-dihydropyridine-3-carbonitrile]",0.560,0.420,0.333,,
"COc1ccc2nc(N3CCOCC3)c(-c3cc(-c4cccc(O)c4)nc(OCC(=O)Nc4ccc(Cl)cc4)c3C#N)cc2c1 [11h, N-(4-Chlorophenyl)-2-((3-cyano-6-(3-hydroxyphenyl)-4-(6-methoxy-2-morpholin-4-yl-quinolin-3-yl)pyridin-2-yl)oxy)acetamide]",2.341,2.125,2.243,,
"N#Cc1c(-c2cc3ccccc3nc2N2CCOCC2)cc(-c2cccc(O)c2)nc1OCC(=O)Nc1ccccc1 [11a, 2-((3-Cyano-6-(3-hydroxyphenyl)-4-(2-morpholin-4-yl-quinolin-3-yl)pyridin-2-yl)oxy)-N-phenylacetamide]",0.911,1.143,0.429,,
"N#Cc1c(-c2cc3cc(Cl)ccc3nc2N2CCOCC2)cc(-c2cccc(O)c2)nc1S [6b, 4-(6-Chloro-2-morpholin-4-yl-quinolin-3-yl)-6-(3-hydroxyphenyl)-2-mercaptopyridine-3-carbonitrile]",1.160,0.676,2.961,,
"COc1ccc2nc(N3CCOCC3)c(-c3cc(-c4cccc(OC(C)=O)c4)[nH]c(=O)c3C#N)cc2c1 [7c, 3-(5-Cyano-4-(6-methoxy-2-morpholin-4-yl-quinolin-3-yl)-6-oxo-1,6-dihydropyridin-2-yl)phenyl acetate]",1.356,0.895,0.964,,
"N#Cc1c(-c2cc3cc(Cl)ccc3[nH]c2=O)cc(-c2cccc(O)c2)[nH]c1=O [13b, 4-(6-Chloro-2-oxo-1,2-dihydroquinolin-3-yl)-6-(3-hydroxyphenyl)-2-oxo-1,2-dihydropyridine-3-carbonitrile]",1.253,1.441,1.573,,
"COc1ccc(NC(=O)COc2nc(-c3cccc(O)c3)cc(-c3cc4cc(Cl)ccc4nc3N3CCOCC3)c2C#N)cc1 [11f, 2-((4-(6-Chloro-2-morpholin-4-yl-quinolin-3-yl)-3-cyano-6-(3-hydroxyphenyl)pyridin-2-yl)oxy)-N-(4-methoxyphenyl)acetamide]",3.803,1.814,4.986,,
"CC(=O)Oc1cccc(-c2cc(-c3cc4cc(Cl)ccc4nc3N3CCOCC3)c(C#N)c(=O)[nH]2)c1 [7b, 3-(4-(6-Chloro-2-morpholin-4-yl-quinolin-3-yl)-5-cyano-6-oxo-1,6-dihydropyridin-2-yl)phenyl acetate]",1.037,1.308,1.378,,
"COc1ccc2[nH]c(=O)c(-c3cc(-c4cccc(O)c4)nc(N)c3C#N)cc2c1 [15c, 2-Amino-6-(3-hydroxyphenyl)-4-(6-methoxy-2-oxo-1,2-dihydroquinolin-3-yl)pyridine-3-carbonitrile]",0.846,0.992,1.131,,
"N#Cc1c(-c2cc3cc(Cl)ccc3[nH]c2=O)cc(-c2cccc(O)c2)nc1S [14b, 4-(6-Chloro-2-oxo-1,2-dihydroquinolin-3-yl)-6-(3-hydroxyphenyl)-2-mercaptopyridine-3-carbonitrile]",1.400,1.452,1.568,,
"N#Cc1c(-c2cc3ccccc3nc2N2CCCCC2)cc(-c2cccc(O)c2)nc1S [6d, 6-(3-Hydroxyphenyl)-4-(2-(piperidin-1-yl)quinolin-3-yl)-2-mercaptopyridine-3-carbonitrile]",5.622,3.498,8.664,,
"COc1ccc2nc(N3CCCCC3)c(-c3cc(-c4cccc(O)c4)[nH]c(=O)c3C#N)cc2c1 [5f, 6-(3-Hydroxyphenyl)-4-(6-methoxy-2-(piperidin-1-yl)quinolin-3-yl)-2-oxo-1,2-dihydropyridine-3-carbonitrile]",0.661,0.696,0.788,,
